In the assay the target is p53, as found in the co-immunoprecipitations with ARTS and with XIAP (UniProt P04637). In words: co-IP; cells lysed in RIPA buffer (50 mM Tris-HCl pH 7.5, 150 mM NaCl, 0.3% NP-40); antibody 5 µg per 1000 µg protein overnight at 4 °C; protein A/G agarose 4 h; five washes; western blot. Cell line not stated. Etoposide-treated cells for ARTS-p53.

These are yes or no findings as the source states them, for the method shown. In cells and extracts the contact can be indirect. Some entries that bind do so weakly or less than the wild type.

B1: ARTS (Sept4_i2), as found in the co-immunoprecipitation with p53 (protein, UniProt O43236-6 1-274)
chain: MIKRFLEDTTDDGELSKFVKDFSGNASCHPPEAKTWASRPQVPEPRPQAPDLYDDDLEFRPPSRPQSSDNQQYFCAPAPLSPSARPRSPWGKLDPYDSSEDDKEYVGFATLPNQVHRKSVKKGFDFTLMVAGESGLGKSTLVNSLFLTDLYRDRKLLGAEERIMQTVEITKHAVDIEEKGVRLRLTIVDTPGFGDAVNNTECWKPVAEYIDQQFEQYFRDESGLNRKNIQDNRVHCCLYFISPFGHGYGPSLRLLAPPGAVKGTGQEHQGQGCH
As for B1, the binding result was “binds”.

These data come from publication PMC11263447.
